Experimental data as given in patent US20130129730A1 (Amgen, published 2013).
Where a chain is given by its changes, count along the chain named. Results are given in words; binding and its absence hold for the method and conditions named. Some entries that bind do so weakly or less than the wild type.

Amino acid sequences for entries named in this document (tags omitted).
UniProt Q04609: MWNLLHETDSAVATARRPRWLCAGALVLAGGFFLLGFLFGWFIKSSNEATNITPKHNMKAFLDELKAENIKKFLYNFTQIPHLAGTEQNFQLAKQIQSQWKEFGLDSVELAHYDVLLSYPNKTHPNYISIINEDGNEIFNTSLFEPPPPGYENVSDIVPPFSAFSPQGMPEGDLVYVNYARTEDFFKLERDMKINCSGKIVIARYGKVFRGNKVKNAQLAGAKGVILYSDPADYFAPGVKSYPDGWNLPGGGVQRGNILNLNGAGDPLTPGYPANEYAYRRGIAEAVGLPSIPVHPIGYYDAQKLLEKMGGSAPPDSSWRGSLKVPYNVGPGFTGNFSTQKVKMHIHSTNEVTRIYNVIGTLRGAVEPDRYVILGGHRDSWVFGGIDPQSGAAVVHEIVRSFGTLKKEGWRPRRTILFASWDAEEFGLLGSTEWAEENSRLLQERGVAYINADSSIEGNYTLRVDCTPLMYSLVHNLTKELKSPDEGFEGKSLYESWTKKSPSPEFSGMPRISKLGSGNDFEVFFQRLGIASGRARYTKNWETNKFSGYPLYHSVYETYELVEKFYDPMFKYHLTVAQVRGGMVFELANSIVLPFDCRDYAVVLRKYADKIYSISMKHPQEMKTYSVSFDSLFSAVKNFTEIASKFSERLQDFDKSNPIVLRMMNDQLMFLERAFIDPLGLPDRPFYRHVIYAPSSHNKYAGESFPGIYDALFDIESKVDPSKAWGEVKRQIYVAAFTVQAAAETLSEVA

B1: scFv PM52-C3 (scFv)
scFv: QVQLVQSGAEVKKPGASVKLSCKASGYTFTYFDINWVRQTPEQGLEWMGGISPGDGNTNYNENFKGRVTMTRDTSSSTAYMELSRLRSDDTAVYYCARDGNFPYYAMDSWGQGTTVTVSSGGGGSGGGGSGGGGSDVVMTQSPLSLPVTLGEPASISCRSSQSLVYSNGNTYLHWYQQKPGQSPRLLIYKVSNRFSGVPDRFSGSGSGTDFTLKISRVEAEDVGVYFCSQSTHVPYTFGQGTKLEIKDYKDDDDK
notes: Tested as periplasmic preparation from E. coli; also called PM52C3-VH-VL; not shown: His6-tag
B2: scFv PM52-H3 (scFv)
scFv: B1 scFv with S76K
notes: Tested as periplasmic preparation from E. coli; also called PM52H3-VH-VL; not shown: His6-tag
B3: scFv PM75-A10 (scFv)
scFv: B1 scFv with D108V, S109N
notes: Tested as periplasmic preparation from E. coli; also called PM75A10-VH-VL; not shown: His6-tag
B4: scFv PM91-B6 (scFv)
scFv: B1 scFv with M107L, D108T, S109N
notes: Tested as periplasmic preparation from E. coli; also called PM91B6-VH-VL; not shown: His6-tag

Each binder was assayed against human PSMA (human) (UniProt Q04609) (assay: flow cytometry, scFv periplasmic preparation on transfected CHO cells).

Q: How did the binding turn out when B1 was run?
A: binds

Q: Which binding does the source give for B2 here?
A: binds

Q: For B3, which binding is on record?
A: binds

Q: How did the binding turn out when B4 was run?
A: binds

Each binder was assayed against human PSMA (human) (UniProt Q04609) (assay: flow cytometry, scFv periplasmic preparation on PSMA transfected CHO cells).

Q: Which binding does the source give for B1 here?
A: binds

Q: Which binding does the source give for B2 here?
A: binds

Q: For B3, which binding is on record?
A: binds

Q: For B4, which binding is on record?
A: binds
